Results deposited as PubChem BioAssay AID1159584 (Peter MacCallum Cancer Centre, 2016)

- Purpose: 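Genes that CDH1-null MCF10A cells selectively depend on to survive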 (primary screen)
- System: human MCF10A breast epithelial cells, parental and CDH1-null
- Reagent: siRNA against human genes
- Measurement: 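ATP luminescence (CellTiter-Glo) viability per line relative to mean mock wells over all plates, and the ratio of CDH1-null to parental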
- Direction: CDH1-null / parental viability ratio: higher = CDH1-null cells survive relatively better than parental; CDH1-null viability vs mock: higher = more viable CDH1-null cells
In all, the deposit lists about 18,000 reagents; below is a part drawn at random. Reagents against one gene are numbered here. Further read-outs or replicates are left out here. Reagent sequences are not shown. Not given: the amount of reagent, the time to read-out.

gene knocked down | reagent | CDH1-null / parental viability ratio | CDH1-null viability vs mock (fraction of mock)
SPSB1 | 1 | 1.09 | 0.87
SLC13A4 | 1 | 0.91 | 0.6
PMEL | 1 | 1.04 | 0.84
CNTFR | 1 | 0.76 | 0.59
CACNB3 | 1 | 1.21 | 0.8
LRIG3 | 1 | 0.84 | 0.98
PTCH1 | 1 | 1.07 | 0.86
USP34 | 1 | 1.19 | 0.96
AMN | 1 | 1.15 | 0.94
KRTAP19-7 | 1 | 0.96 | 0.5
TSSC4 | 1 | 0.89 | 0.82
SIRPB1 | 1 | 0.63 | 0.44
DPH6 | 1 | 1.23 | 0.91
KLHL11 | 1 | 1.12 | 1.12
FICD | 1 | 1.03 | 0.8
TMEM134 | 1 | 1.02 | 0.94
ZNF155 | 1 | 1.2 | 0.96
OR3A3 | 1 | 1.2 | 0.53
YES1 | 1 | 0.94 | 0.76
DUSP16 | 1 | 1.16 | 0.87
ANKS1B | 1 | 0.79 | 0.52
NMNAT1 | 1 | 0.93 | 0.78
SPINK7 | 1 | 0.94 | 0.34
BCS1L | 1 | 0.9 | 0.54
TIMM8B | 1 | 1.08 | 0.54
NMI | 1 | 0.97 | 0.96
ZNF264 | 1 | 1.16 | 0.74
ANXA3 | 1 | 0.69 | 0.62
MIA | 1 | 0.85 | 0.66
ZDHHC5 | 1 | 0.99 | 0.89
LRRCC1 | 1 | 1.03 | 0.64
VKORC1L1 | 1 | 0.75 | 0.36
MTURN | 1 | 0.93 | 0.76
COL5A2 | 1 | 1.05 | 0.82
DDIT4L | 1 | 1 | 0.7
ZCCHC13 | 1 | 1.04 | 0.83
FNDC1 | 1 | 0.7 | 0.42
SGO1 | 1 | 1.07 | 0.49
CLDN4 | 1 | 0.89 | 0.71
ADGRG5 | 1 | 0.67 | 0.62
SERINC5 | 1 | 1.08 | 1.06
GIPR | 1 | 1.27 | 0.98
MGP | 1 | 0.86 | 0.44
MDP1 | 1 | 1.18 | 0.85
CETN1 | 1 | 1.1 | 0.99
TLR7 | 1 | 0.84 | 0.74
RPS6KB1 | 1 | 1.16 | 0.86
OR10V1 | 1 | 1.06 | 0.84
TRAPPC13 | 1 | 0.95 | 0.92
LRP1B | 1 | 1.14 | 1
CFI | 1 | 0.89 | 0.51
DPP7 | 1 | 1.18 | 0.84
OR7E24 | 1 | 0.81 | 0.84
FASTKD4 | 1 | 0.97 | 0.86
RPAP3 | 1 | 0.84 | 0.26
SNED1 | 1 | 1.02 | 1.02
CXorf65 | 1 | 1 | 0.98
MTRF1 | 1 | 0.93 | 0.91
CORO6 | 1 | 0.9 | 0.92
MIR1-1HG | 1 | 0.94 | 0.94
SEC14L2 | 1 | 0.98 | 0.9
CSGALNACT2 | 1 | 1.1 | 0.86
NTS | 1 | 0.92 | 0.9
RNF213 | 1 | 0.88 | 0.72
RNF213 | 2 | 0.96 | 0.9
LRRTM4 | 1 | 0.8 | 0.36
RSPH3 | 1 | 1.01 | 0.72
LOC389834 | 1 | 1.26 | 0.86
TP53I13 | 1 | 1.25 | 0.55
APOBEC3G | 1 | 0.8 | 0.78
PREP | 1 | 1.13 | 0.78
FSHR | 1 | 1.29 | 0.88
PIP | 1 | 1.16 | 0.66
CASP4 | 1 | 0.97 | 0.72
RCAN1 | 1 | 0.74 | 0.64
SUSD1 | 1 | 0.7 | 0.62
PKN1 | 1 | 0.85 | 0.73
WNK1 | 1 | 1.19 | 0.38
WNK1 | 2 | 0.77 | 0.66
LHFPL5 | 1 | 1.23 | 0.53
NAA10 | 1 | 0.87 | 0.55
CMTM2 | 1 | 0.96 | 0.88
ERCC6L2 | 1 | 0.88 | 0.76
ERCC6L2 | 2 | 1.21 | 0.64
P3H3 | 1 | 0.7 | 0.52
CALHM4 | 1 | 0.71 | 0.9
H2BC4 | 1 | 1.19 | 0.74

Records above whose target name begins with S or s (9):
gene knocked down | reagent | CDH1-null / parental viability ratio | CDH1-null viability vs mock (fraction of mock)
SPSB1 | 1 | 1.09 | 0.87
SLC13A4 | 1 | 0.91 | 0.6
SIRPB1 | 1 | 0.63 | 0.44
SPINK7 | 1 | 0.94 | 0.34
SGO1 | 1 | 1.07 | 0.49
SERINC5 | 1 | 1.08 | 1.06
SNED1 | 1 | 1.02 | 1.02
SEC14L2 | 1 | 0.98 | 0.9
SUSD1 | 1 | 0.7 | 0.62
